# Data reported in PubChem BioAssay AID2685 (National Center for Advancing Translational Sciences (NCATS), 2010).
# This is one part of the list. Shown are side measurements of this screen, not its main read-out; they come without a call. Compounds called inactive in the main read-out are mostly missing here. The note in brackets gives the kind of curve behind each potency; many fits are weak.
# Assay: qHTS Assay for Lipid Storage Modulators in Drosophila S3 Cells;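 as to cell number change: cells counted by Cell Tracker Red CMTPX staining in the red channel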
# Conditions: BODIPY lipid droplet fluorescence, 18-24 h; for cell number change: measured here: cell count max response, cells fed with added oleic acid
# Outline: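 Drosophila S3 cells loaded with oleic acid (400 uM, as added) and compounds at several concentrations; lipid droplets imaged by 488-nm laser-scanning cytometry, 500–530 nm intensity and object ratio to cell channel. Percent activity normalized to 20 uM Triacsin C.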
# [1] = measured here: lipid fluorescence (Fed channel) AC50, cells fed with added oleic acid
# [2] = measured here: cell number channel AC50, cells fed with added oleic acid
Structure (SMILES),cell number change [%],AC50 [1],AC50 [2]
CCc1ccc(/C=C2\SC(=S)N(CCC(=O)NCCCN3CCOCC3)C2=O)cc1,13,"2.59 µM [rising, single point]",–
CNC(=S)N(CCc1c(C)[nH]c2ccc(OC)cc12)Cc1cc(OC)c(OC)c(OC)c1,-4.52,"1.3 µM [rising, partial curve]",–
CC1=C[C@H](C)[C@H](c2c(F)cccc2Cl)CC1=O,-2.59,"0.651 µM [rising, partial curve, poor fit]",–
O=C(CSc1nc2ccc(Cl)cc2[nH]1)c1ccc2c(c1)OCO2,–,"20.6 µM [falling, partial curve]",–
Cc1ccc2nc(NC(=O)CSc3nc4c(c(=O)n3C)SC(C)C4)sc2c1 (stereo not drawn),-32.9,"29.1 µM [falling, single point]","29.1 µM [falling, single point]"
Nc1cccc(C(=O)OCC(=O)NC2CCCc3ccccc32)c1 (stereo not drawn),-65.4,"6.51 µM [falling, partial curve, poor fit]","5.8 µM [falling, partial curve, poor fit]"
CC(NS(=O)(=O)c1ccc(Br)s1)c1ccccc1 (stereo not drawn),–,"29.1 µM [falling, single point]",–
CCc1cccc(NC(=O)CCNS(=O)(=O)c2cccc3nonc23)c1,17.8,"3.26 µM [falling, single point]",–
CCCCCCC1(C)NC(=O)N(C(C)C(=O)Nc2ccc(N3CCOCC3)cc2)C1=O (stereo not drawn),14.9,"23.1 µM [rising, single point]",–
COc1ccc(NC(=O)COC(=O)C2CC(=O)N(c3ccc(C)cc3)C2)cc1 (stereo not drawn),30.5,"0.206 µM [rising, single point]","20.6 µM [rising, single point]"
CCN(C(=O)CN1C(=O)NC(CCSC)C1=O)C1CCS(=O)(=O)C1 (stereo not drawn),2.88,"0.164 µM [rising, full curve, poor fit]",–
CCOC(=O)c1ccc(N=CC2=C(O)CC(C)(C)CC2=O)cc1,-2.48,–,–
CCCC(=O)Nc1ccc(C=C(C(C)=O)C(C)=O)cc1,-20.2,"9.2 µM [falling, partial curve, poor fit]",–
CC1CCC(C(=O)NC(C(=O)N2CCN(c3ccccn3)CC2)C(C)C)CC1 (stereo not drawn),-17,–,–
O=C(NNC(=S)NC(=O)c1ccccc1Cl)c1cccc([N+](=O)[O-])c1,31.6,"1.84 µM [rising, full curve]",–
Cc1c(C)n(Cc2ccc(Cl)cc2)c2ccc(C(=O)NCCN3CCOCC3)cc12,–,"4.11 µM [rising, partial curve]",–
COc1ccc2oc(C(=O)OCC(=O)NC(C)c3ccccc3)c(C)c2c1 (stereo not drawn),26.6,"6.51 µM [rising, single point]",–
Cc1ccc(SCC(=O)NNC(=O)c2ccc(S(C)(=O)=O)cc2)cc1,24.4,–,"0.116 µM [rising, full curve, poor fit]"
Cc1ccc(S(=O)(=O)NCc2ccccc2)cc1C(=O)NC1CCCCC1,-21.5,"35.5 µM [falling, single point]",–

# Three compounds from above, ordered by length of the SMILES, high to low.
Structure (SMILES),cell number change [%],AC50 [1],AC50 [2]
CNC(=S)N(CCc1c(C)[nH]c2ccc(OC)cc12)Cc1cc(OC)c(OC)c(OC)c1,-4.52,"1.3 µM [rising, partial curve]",–
CC1CCC(C(=O)NC(C(=O)N2CCN(c3ccccn3)CC2)C(C)C)CC1 (stereo not drawn),-17,–,–
CC(NS(=O)(=O)c1ccc(Br)s1)c1ccccc1 (stereo not drawn),–,"29.1 µM [falling, single point]",–

# The listing continues:

Structure (SMILES),cell number change [%],AC50 [1],AC50 [2]
COCc1c(C(=O)N/N=C/c2ccc(C)o2)nnn1-c1nonc1N,-7.62,"0.206 µM [falling, single point]",–
Cn1c(=O)[nH]c(=O)c2c1nc(N1CCCCCC1)n2CCCSc1nnnn1-c1ccccc1,18.9,"3.66 µM [rising, partial curve]","2.59 µM [rising, single point]"
Cc1ncc(CO)c(/C=N/Nc2ccc(C(F)(F)F)cn2)c1O,8.82,"0.231 µM [falling, partial curve, poor fit]",–
Cc1nnc(Cn2cnc3c2c(=O)n(C)c(=O)n3C)o1,–,"2.91 µM [rising, single point]",–
CCOC(=O)CNC(=O)CNC(=O)c1nn(-c2ccc(OC)c(OC)c2)c(=O)c2ccccc12,-2.13,–,"0.731 µM [falling, single point]"
Cc1ccc(C(=O)Nc2cccc3ncccc23)cc1[N+](=O)[O-],167,–,–
Cc1cccc(NC(=S)N2CCC(C(N)=O)(N3CCCCC3)CC2)c1C,24.3,"0.517 µM [falling, single point]",–
CCc1ccccc1NNC(=O)c1cc(C)on1,13.9,"0.366 µM [rising, full curve, poor fit]",–
COc1ccc(NC(=O)CSc2nnc(NC(C)=O)s2)c([N+](=O)[O-])c1,-35.8,"29.1 µM [falling, single point]","29.1 µM [falling, single point]"
CCCN(CC(=O)Nc1ccccc1C)C(=O)c1ccc(NC2CC2)c([N+](=O)[O-])c1,47,–,"1.84 µM [rising, full curve]"
NS(=O)(=O)c1cccc(NC(=O)CSc2n[nH]c(-c3cccs3)n2)c1,18.9,"16.4 µM [rising, partial curve, poor fit]",–
CC(C)(C)OC(=O)N[C@@H](/C=C/c1ccccc1)C(=O)OC(C)(C)C,-4.14,"0.00461 µM [rising, full curve, poor fit]",–
O=S(=O)(NCc1ccccc1)[C@@H]1CC2C=CC1C2 (stereo partly drawn),5.78,"5.8 µM [rising, full curve, poor fit]",–
Cc1ccc(C)c(NC(=S)NCc2ccc3[nH]c4c(c3c2)CCCC4)c1,-69.8,"16.4 µM [falling, partial curve]","14.6 µM [falling, partial curve]"
COc1ccc(/C=C\C(=O)NCC(=O)N/N=C/c2cccc(OC)c2O)cc1,28.7,–,–
COc1ccc(N(CC(=O)Nc2ccc3c(c2)OCCO3)S(=O)(=O)c2cccnc2)cc1,73.8,"0.291 µM [rising, full curve]","0.259 µM [rising, full curve]"
CC(=O)c1cnc(Nc2nc(C)c3ccc(C)cc3n2)nc1C,36.6,–,"10.3 µM [rising, single point]"
CC(=O)Nc1ccc(S(=O)(=O)Nc2ccc(N3CCOCC3)cc2)cc1,11.9,"29.1 µM [rising, single point]",–
